{
  "source": "paper PMC6925871",
  "biological_target": "T1, CTCF (Homo sapiens) (UniProt P49711)",
  "T1 sequence (looked up, limits assumed)": "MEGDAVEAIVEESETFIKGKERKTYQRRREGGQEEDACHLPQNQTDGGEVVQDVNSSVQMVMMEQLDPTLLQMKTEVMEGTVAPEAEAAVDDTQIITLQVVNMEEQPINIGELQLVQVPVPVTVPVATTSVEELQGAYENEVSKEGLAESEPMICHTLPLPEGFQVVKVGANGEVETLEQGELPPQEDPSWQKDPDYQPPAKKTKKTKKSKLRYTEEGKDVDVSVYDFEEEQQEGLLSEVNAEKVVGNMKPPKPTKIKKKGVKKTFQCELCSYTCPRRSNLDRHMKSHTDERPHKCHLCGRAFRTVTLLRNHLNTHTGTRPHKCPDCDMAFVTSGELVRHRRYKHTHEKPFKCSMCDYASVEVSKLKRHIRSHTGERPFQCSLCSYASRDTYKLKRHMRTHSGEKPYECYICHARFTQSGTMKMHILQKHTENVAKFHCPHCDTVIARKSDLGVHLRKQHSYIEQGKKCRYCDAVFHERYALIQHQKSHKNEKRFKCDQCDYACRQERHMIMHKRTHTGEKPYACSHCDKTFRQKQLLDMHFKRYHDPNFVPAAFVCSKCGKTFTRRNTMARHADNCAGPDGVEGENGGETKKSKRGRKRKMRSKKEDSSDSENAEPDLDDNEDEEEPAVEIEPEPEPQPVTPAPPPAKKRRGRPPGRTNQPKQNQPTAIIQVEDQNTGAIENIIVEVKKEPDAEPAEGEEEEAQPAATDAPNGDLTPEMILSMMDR",
  "experiment": "EMSA",
  "conditions": "25 uM ZnSO4, 5 mM MgCl2, with and without CTCF antibody; protein in a lysate after overexpression",
  "note": "The exact form of at least one protein or probe is not confirmed. Where cells or extracts were used, other partners may take part. At least one verdict was read from the data and is not stated in words by the source. Tags and fusion partners may be left off the protein sequences shown.",
  "data": [
    {"sequence": "ATGCGTTTCCCCGCGAGGTGGCGCTTTCTCCCC (double strand) [vCTCF-BS wild type]", "values": [
      {"measurement": "binding result", "result": "binds"}
    ]}
  ]
}
